Results are given in words; binding and its absence hold for the method and conditions named. Some entries that bind do so weakly or less than the wild type.
Legend:
[1] = target: T1, MICA extracellular domain (α1-α3 domains), allele not stated (human) (UniProt Q29983); test: ELISA on immobilized MICA
T1 sequence (looked up): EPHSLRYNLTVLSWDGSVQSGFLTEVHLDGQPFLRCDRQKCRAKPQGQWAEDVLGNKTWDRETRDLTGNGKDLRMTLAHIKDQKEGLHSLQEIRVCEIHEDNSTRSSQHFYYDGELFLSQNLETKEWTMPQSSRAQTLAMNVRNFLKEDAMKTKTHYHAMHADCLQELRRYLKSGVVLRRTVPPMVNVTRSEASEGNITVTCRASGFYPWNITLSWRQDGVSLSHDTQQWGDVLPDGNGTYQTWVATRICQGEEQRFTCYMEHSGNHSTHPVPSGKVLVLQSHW

[2] = target: T1, MICA extracellular domain (α1-α3 domains), allele not stated (human); test: fluorescence-based ELISA, immobilized antigen
[3] = target: T1, MICA extracellular domain (α1-α3 domains), allele not stated (human); test: ELISA: immobilized MICA, antibody titrated, HRP anti-mouse IgG
[4] = target: T1, MICA extracellular domain (α1-α3 domains), allele not stated (human); test: fluorescence ELISA (DELFIA): coated antigen, mouse mAb at 1 µg/ml, biotinylated anti-mouse IgG + streptavidin-Europium
[5] = target: T1, MICA extracellular domain (α1-α3 domains), allele not stated (human); test: fluorescence ELISA (DELFIA): immobilized MICA extracellular domain, antibody titrated, biotinylated anti-mouse IgG + Europium-streptavidin

Measured: binding

B1: mAb 7C6 (parental murine IgG2b monoclonal antibody specific for the MICA/B α3 domain) (antibody, V domains shown)
VH: QIQLVQSGPELKKPGETVKVSCKASGYMFTNYAMNWVKQAPEKGLKWMGWINTHTGDPTYADDFKGRIAFSLETSASTAYLQINNLKNEDTATYFCVRTYGNYAMDYWGQGTSVTVSS
VL: DIQMTQTTSSLSASLGDRVTISCSASQDISNYLNWYQQKPDGTVKLLIYDTSILHLGVPSRFSGSGSGTDYSLTISNLEPEDIATYYCQQYSKFPRTFGGGTTLEIK
notes: Mouse hybridoma antibody; also called 7C6 mAb; 7C6-mIgG2b
binds: all assays above
